Values of other authors in patent publication US8969295B2, “Identifying and modulating molecular pathways that mediate nervous system plasticity” (Massachusetts Institute of Technology, priority 2006, dated 2015).
Some of these results come from one statement about several compounds together. For at least one compound, name, drawing or mass did not settle the structure.

System: cGMP
Settings: Nishiyama et al., 2003; cited from earlier work

## Nc1nc2c(nc(Br)n2[C@@H]2O[C@@H]3COP(=O)(O)O[C@H]3[C@H]2O)c(=O)[nH]1 [8-Br-cGMP]
  Effective doses on neurite growth and dynamics in brain slices: 10 to 100 µM
